Test system: IDH1 dimer
Assay: Non-denaturing MS binding stoichiometry
Design: species or system human
Conditions: 20 µM IDH1 variant

Structure (SMILES) | Stoichiometry of inhibitor binding per IDH1 dimer (non-denaturing MS)
COc1c(C)cc(NC(=O)c2nn(Cc3ccc(F)cc3)c3c2CN(C(=O)c2ccc[nH]2)C[C@]3(C)C(N)=O)cc1C [GSK864] | 2
CC(Nc1nccc(N2C(=O)OCC2C(C)C)n1)c1ccc(CN2CCC(F)(F)CC2)cc1 (centres unmarked) [IDH224] | 2
N#Cc1ccnc(N2C(=O)CC[C@H]2C(=O)N(c2cncc(F)c2)[C@H](C(=O)NC2CC(F)(F)C2)c2ccccc2Cl)c1 [ivosidenib] | one inhibitor molecule per dimer
C[C@H](Nc1ccc(C#N)n(C)c1=O)c1cc2cc(Cl)ccc2[nH]c1=O [FT-2102] | 2
Cc1cn(C(=O)c2c(-c3c(Cl)cc(Cl)cc3Cl)noc2C(C)(C)F)c2cccc(/C=C/C(=O)O)c12 [DS-1001B] | 2

Reference: paper PMC9378673 (Nature Communications, 2022)
